# Library screen at single concentrations

By UniProt entry, the sequences of proteins in these tests, tags left out. Residues count along the entry.
UniProt Q4DA54, 1-478: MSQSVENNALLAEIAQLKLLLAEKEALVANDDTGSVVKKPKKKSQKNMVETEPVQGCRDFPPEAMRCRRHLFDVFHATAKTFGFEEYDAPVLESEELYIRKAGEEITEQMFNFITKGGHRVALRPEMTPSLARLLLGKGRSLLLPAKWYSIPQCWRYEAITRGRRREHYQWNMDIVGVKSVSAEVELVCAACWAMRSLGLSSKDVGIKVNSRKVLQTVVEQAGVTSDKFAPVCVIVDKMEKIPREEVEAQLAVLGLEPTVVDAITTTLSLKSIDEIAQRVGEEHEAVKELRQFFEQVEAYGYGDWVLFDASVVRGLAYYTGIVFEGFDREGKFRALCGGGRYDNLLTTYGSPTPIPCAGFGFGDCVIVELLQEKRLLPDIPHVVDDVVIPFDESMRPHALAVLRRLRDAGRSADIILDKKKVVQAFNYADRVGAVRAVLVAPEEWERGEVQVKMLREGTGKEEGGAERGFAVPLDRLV

Data taken from ChEMBL document CHEMBL3988442, “University of Dundee, Small-Polar-MMV Screening Library” (2021).

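Enzyme assay of histidyl-tRNA synthetase; the read-out is not stated. Target: Histidine-tRNA ligase, Trypanosoma cruzi CL Brener (UniProt Q4DA54). Concentration: 30 µM. The record gives no direction; compounds that gave an IC50 in retests scored well above the rest, so higher reads as stronger inhibition. Of about 69,000 compounds tested this way, about 31 (0.045%) reached 50% or more in at least one test.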

Values are the deposited “Percent Effect”, in %. The controls that fix the scale are not given in the record; negative values are as filed. Compounds were drawn at random from those tested, without regard to their results.

| compound | percent effect |
|---|---|
| `CC(O)CN1CCC(CNCc2cccc(C(N)=O)c2)CC1` (stereo not given) | 1.504 |
| `CC(C)CN1C[C@H]2CCN(C(=O)c3ccccn3)CC[C@H]2S1(=O)=O` | 3.883 |
| `CCc1ncc(C(=O)NCCNc2ccncc2)s1` | 12 |
| `CCOC(=O)c1s/c(=N\C(=O)COc2cnc(C)cc2O)[nH]c1C` | 1.242 |
| `COc1ccc(C(=O)N2CCC(Oc3cccc(C)c3)(C(=O)O)CC2)o1` | 10.13 |
| `CC(C)OC(=O)CC(NC(=O)CCn1cccn1)c1ccccc1` (stereo not given) | 2.353 |
| `CCOCC(O)CN1CCN(C(=O)c2cc(Cl)ccc2F)CC1` (stereo not given) | 4.571 |
| `CCCn1nc2c(cc1=O)CN(CC(=O)Nc1cc(C)no1)CC2` | 2.116 |
| `CCCC(NC(=O)c1ccc(C)cc1C)c1nnn[nH]1` (stereo not given) | 11.67 |
| `CC(=O)NCCC1CCCCN1S(=O)(=O)c1cccc(F)c1` (stereo not given) | 7.035 |
| `CC(=O)CSc1sc2c(O)cc(=O)[nH]c2c1C(N)=O` | 3.727 |
| `O=C(c1cc(=O)[nH]c(=O)[nH]1)N1CCCCC1c1ccc(F)cc1` (stereo not given) | 3.252 |
| `COCCNC(=O)C[C@@H]1COC[C@H]2CN(C(=O)c3cnccn3)C[C@@H]12` | 4.132 |
| `CC(=O)N(C)C1CCN(C(=O)NCCc2cc(F)ccc2F)CC1` | -2.97 |
| `OCC1N(Cc2ccco2)[C@H]2CC[C@]1(O)CC2` (stereo not given in full) | 5.618 |
| `CC1CN(C(=O)c2ccc(=O)n(C)c2)c2ccccc2NC1=O` (stereo not given) | 2.212 |
| `CC(C(=O)Nc1ccnn1C(C)C)N1CCN(Cc2ccon2)CC1` (stereo not given) | -1.087 |
| `O=C(Nc1ccc2c(c1)OC1(CCCC1)O2)c1ccc(=O)[nH]n1` | -1.01 |
| `O=C(O)[C@@H]1CN(CC(=O)N2CCCCC2)C[C@H]1c1ccc(F)cc1` | -1.064 |
| `CC(C)Cc1cc(C(=O)N2CCC(Oc3cccnc3)CC2)n(C)n1` | -3.59 |
| `Cc1nc2sc(C(=O)N3CCNC(=O)C3)c(C)c2c(=O)[nH]1` | 1.554 |
| `CCc1ccc(C(=O)N2CCN(CCO)CC2)o1` | 8.772 |
| `O=C(Cc1c(F)cccc1Cl)Nc1cc(N2CCOCC2)ncn1` | 5.82 |
| `Cc1ccc(CN2CC[C@H]3[C@H](CO[C@H]3CN(C)C)C2)o1` | 5.155 |
| `CCc1cnc(CN(C)C(=O)NC2CCN(c3ccccc3)C2)s1` (stereo not given) | 11.69 |
| `O=C(CCc1ccccn1)N1CCSC2(CCCCC2)C1` | 8.642 |
| `Cc1nc(N2CCCC2)nc2c1CN(C(=O)N(C)C)CC2` | 6.25 |
| `O=C(CN1CCCc2cc(F)cc(F)c21)Nc1ccc(Br)cn1` | 3.061 |
| `CC(C)n1cnnc1C1CCCN(C(=O)COCc2ccccc2)C1` (stereo not given) | 3.198 |
| `COc1ccc(OC)c(CNC2CCCc3nc(N(C)C)ncc32)c1` (stereo not given) | 0.4975 |
| `COCCC(=O)N1CCC(c2cc3ncc(C)nc3[nH]2)CC1` | 5.323 |
| `Cc1ccc(C2CCCN2S(=O)(=O)N(C)Cc2cnccn2)o1` (stereo not given) | 1.205 |
| `Cc1cc(C)n(-c2cccc(C(=O)Nc3n[nH]c(C4CCCO4)n3)c2)n1` (stereo not given) | 8.247 |
| `Cc1noc(C(C)C)c1C(=O)NCCCN1CCCC1` | 1.141 |
| `N#Cc1ccccc1OCCN1CCCC1Cn1cncn1` (stereo not given) | 4.942 |
| `Cc1ccoc1C(=O)N1CC(C(=O)N2CCOCC2)C2(CCOCC2)C1` (stereo not given) | 1.075 |
| `CN(C)C(=O)CN1CCC2(CCN(S(C)(=O)=O)CC2)C1=O` | 0.9709 |
| `CCN(CC)C(=O)c1ccc(Cl)c(NC(=O)c2csnn2)c1` | 7.463 |
| `CC(C)C[C@H](N)COc1cccc(F)c1Oc1cccc(Cl)c1` | 35.63 |
| `COc1ccc2[nH]cc(-c3ccnc(NC4CCCC4)n3)c2c1` | 18.08 |
| `CCN(CCO)C(=O)C1CCC(=O)N(CCc2cccc(F)c2)C1` (stereo not given) | -5.641 |
| `c1cnn(Cc2ccc(CN3CCC4(CCCNC4)C3)cc2)c1` (stereo not given) | 3.518 |
| `Cc1cnn(-c2cccc(N3CCN(c4cc(C)nc(C)n4)CC3)n2)c1` | 8.287 |
| `CN1CCOC(CNCc2coc(-c3cccc(Cl)c3)n2)C1` (stereo not given) | 2.907 |
| `COc1cc2c(c(OC)c1OC)CCN(CCn1cncn1)CC2` | 4 |
| `O=C(NC[C@]12COC[C@H]1CN(Cc1nccs1)C2)c1ccsc1` | 3.659 |
| `CCn1ccnc1CN1CCN(c2cc(C)nc(C3CCCN3)c2)CC1` (stereo not given) | 3.03 |
| `CCC[C@@H]1CN(C(=O)c2cnc3ccccc3c2)C[C@H]1NS(C)(=O)=O` | 4.706 |
| `CC(=O)Nc1ccc(SCC(=O)NCC2CCCO2)nn1` (stereo not given) | 0 |
| `Cc1cc(N2CCC(N(C)Cc3cc(=O)c(O)co3)CC2)nc(C)n1` | 3.896 |
| `O=C1C[C@H]2[C@@H](CCN2C(=O)Cc2cccs2)N1Cc1cccnc1` | 0.7519 |
| `CSc1nc2ccsc2c(=O)n1CC(=O)N1CCCCC1C` (stereo not given) | 1.754 |
| `O=c1cc(-c2ccccc2)nc2n1CCCCC2` | 0.9901 |
| `Cc1ccc(-c2n[nH]cc2CNCC2CCN(CC(F)(F)F)C2)o1` (stereo not given) | 9.804 |
| `CC(C)c1cc(C2CCN(C(=O)Cn3cncn3)CC2)[nH]n1` | -0.8696 |